Measured values: PMC8274477
Results are given in words; binding and its absence hold for the method and conditions named. Some entries that bind do so weakly or less than the wild type.

Chains of the proteins cited; added tags and fusions are not shown.
UniProt Q9UKM9: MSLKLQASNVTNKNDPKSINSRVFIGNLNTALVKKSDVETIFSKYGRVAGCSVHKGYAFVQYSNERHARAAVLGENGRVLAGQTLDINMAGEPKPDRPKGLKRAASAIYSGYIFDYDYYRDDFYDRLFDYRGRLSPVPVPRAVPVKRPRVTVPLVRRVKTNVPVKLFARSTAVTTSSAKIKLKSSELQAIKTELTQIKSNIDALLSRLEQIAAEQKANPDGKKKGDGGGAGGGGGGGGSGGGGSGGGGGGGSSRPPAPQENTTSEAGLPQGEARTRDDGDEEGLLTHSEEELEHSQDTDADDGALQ
UniProt Q9H361: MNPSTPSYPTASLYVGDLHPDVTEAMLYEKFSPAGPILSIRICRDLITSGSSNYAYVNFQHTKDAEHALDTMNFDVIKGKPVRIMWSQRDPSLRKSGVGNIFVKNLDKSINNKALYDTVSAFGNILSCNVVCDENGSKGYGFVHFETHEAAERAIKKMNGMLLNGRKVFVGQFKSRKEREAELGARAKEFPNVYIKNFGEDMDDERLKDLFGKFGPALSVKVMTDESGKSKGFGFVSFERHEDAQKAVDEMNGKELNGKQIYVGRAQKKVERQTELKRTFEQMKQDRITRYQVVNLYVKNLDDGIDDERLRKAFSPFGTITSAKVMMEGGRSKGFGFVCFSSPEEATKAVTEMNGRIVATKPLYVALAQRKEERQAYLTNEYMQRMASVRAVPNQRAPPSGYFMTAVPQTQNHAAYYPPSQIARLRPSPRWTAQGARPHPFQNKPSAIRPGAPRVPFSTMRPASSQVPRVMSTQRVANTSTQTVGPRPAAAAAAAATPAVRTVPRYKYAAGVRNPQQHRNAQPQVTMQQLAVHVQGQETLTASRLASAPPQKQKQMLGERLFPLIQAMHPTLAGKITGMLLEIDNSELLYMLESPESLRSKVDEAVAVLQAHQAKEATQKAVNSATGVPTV
UniProt Q07666: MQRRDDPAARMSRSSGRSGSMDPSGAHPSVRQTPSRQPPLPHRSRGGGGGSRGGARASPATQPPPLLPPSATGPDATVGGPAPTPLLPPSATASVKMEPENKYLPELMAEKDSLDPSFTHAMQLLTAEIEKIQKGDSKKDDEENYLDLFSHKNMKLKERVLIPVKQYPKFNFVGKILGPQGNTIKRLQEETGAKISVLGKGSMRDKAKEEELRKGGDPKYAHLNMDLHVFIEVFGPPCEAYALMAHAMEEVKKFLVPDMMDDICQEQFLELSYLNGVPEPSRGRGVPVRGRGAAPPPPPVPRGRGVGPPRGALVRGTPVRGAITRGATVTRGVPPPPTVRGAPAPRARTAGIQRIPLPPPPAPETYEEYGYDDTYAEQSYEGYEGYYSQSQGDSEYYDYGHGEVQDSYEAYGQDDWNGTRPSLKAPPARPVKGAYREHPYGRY
UniProt Q9UHX1: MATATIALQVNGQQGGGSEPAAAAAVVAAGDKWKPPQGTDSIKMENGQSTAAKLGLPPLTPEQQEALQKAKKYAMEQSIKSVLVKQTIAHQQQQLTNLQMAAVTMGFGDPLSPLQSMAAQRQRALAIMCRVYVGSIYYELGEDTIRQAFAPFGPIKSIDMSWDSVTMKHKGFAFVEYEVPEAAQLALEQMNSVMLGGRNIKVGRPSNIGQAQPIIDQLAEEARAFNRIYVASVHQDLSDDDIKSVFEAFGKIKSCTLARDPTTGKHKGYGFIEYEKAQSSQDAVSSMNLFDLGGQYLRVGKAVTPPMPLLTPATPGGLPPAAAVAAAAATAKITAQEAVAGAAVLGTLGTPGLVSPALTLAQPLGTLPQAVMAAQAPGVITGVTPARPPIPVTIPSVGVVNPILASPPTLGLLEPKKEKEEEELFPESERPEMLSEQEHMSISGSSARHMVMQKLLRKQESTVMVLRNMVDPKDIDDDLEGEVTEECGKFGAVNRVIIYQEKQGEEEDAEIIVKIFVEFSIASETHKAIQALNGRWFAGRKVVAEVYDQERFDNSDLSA
UniProt Q15717: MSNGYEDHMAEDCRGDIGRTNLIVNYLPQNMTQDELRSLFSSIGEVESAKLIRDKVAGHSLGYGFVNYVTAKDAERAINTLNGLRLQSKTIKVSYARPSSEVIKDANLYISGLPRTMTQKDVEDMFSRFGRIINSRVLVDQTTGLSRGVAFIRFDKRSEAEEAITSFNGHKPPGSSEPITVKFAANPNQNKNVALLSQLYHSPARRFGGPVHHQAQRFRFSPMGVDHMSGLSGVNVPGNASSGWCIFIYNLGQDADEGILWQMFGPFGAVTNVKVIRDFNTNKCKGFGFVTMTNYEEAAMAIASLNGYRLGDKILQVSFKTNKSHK
UniProt Q13310: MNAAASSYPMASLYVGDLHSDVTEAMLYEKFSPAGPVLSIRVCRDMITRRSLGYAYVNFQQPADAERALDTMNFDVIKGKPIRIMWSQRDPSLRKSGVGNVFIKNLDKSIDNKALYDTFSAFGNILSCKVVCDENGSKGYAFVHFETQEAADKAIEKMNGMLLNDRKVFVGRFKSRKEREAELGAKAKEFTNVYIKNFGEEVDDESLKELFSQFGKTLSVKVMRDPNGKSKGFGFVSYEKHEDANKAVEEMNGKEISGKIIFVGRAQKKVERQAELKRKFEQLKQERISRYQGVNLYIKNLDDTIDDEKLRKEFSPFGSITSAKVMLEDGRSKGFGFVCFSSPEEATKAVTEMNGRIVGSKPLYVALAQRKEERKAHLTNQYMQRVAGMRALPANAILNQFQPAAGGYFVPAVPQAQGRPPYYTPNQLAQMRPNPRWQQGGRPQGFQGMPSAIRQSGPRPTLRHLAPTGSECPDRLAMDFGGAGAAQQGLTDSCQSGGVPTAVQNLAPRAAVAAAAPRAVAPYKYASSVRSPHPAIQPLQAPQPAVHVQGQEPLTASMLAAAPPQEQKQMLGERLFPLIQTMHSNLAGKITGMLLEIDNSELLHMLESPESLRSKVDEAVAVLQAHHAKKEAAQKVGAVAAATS
UniProt Q8TBF8: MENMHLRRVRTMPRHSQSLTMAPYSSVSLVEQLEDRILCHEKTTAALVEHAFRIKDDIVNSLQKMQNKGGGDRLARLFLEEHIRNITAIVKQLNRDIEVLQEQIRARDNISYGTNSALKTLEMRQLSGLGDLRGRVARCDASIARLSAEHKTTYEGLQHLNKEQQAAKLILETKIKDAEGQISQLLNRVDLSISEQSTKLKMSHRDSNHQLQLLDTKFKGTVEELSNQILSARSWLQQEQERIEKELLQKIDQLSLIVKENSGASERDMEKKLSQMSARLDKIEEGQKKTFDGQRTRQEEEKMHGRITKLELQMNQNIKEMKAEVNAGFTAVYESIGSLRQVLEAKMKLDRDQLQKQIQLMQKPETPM

Columns and labels:
Assay in all cases: peptide or protein array; HuProt human proteome microarray; 5 ug/5 ml biotin-labelled LUBAC or OTULIN in solution, 1 h at room temperature; Cy5-streptavidin, scanned at 635 nm; BSA as negative control; hits: Z-score >= 3 and I_(Mean_Ratio) >= 1.4; both purified
[1] = biological target: RALY (human) (UniProt Q9UKM9)
[2] = biological target: T1, GMPPA (human) (UniProt Q96IJ6)
T1 sequence: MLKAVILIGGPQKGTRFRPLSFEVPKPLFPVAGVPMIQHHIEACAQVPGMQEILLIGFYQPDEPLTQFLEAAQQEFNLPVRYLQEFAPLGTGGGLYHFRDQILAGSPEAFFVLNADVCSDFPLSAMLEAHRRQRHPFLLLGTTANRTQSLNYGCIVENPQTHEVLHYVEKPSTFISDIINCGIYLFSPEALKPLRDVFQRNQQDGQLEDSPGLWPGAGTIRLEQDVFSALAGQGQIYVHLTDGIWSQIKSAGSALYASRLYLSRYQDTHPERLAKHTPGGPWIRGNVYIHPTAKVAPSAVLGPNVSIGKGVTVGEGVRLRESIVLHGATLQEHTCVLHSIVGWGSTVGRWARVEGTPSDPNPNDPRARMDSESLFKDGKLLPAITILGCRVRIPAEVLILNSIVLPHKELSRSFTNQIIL

[3] = biological target: PABPC3 (human) (UniProt Q9H361)
[4] = biological target: KHDRBS1 (human) (UniProt Q07666)
[5] = biological target: PUF60 (human) (UniProt Q9UHX1)
[6] = biological target: HOMER3 (human) (UniProt Q9NSC5)
[7] = biological target: T2, ZNF385A (human) (UniProt Q96PM9)
T2 sequence: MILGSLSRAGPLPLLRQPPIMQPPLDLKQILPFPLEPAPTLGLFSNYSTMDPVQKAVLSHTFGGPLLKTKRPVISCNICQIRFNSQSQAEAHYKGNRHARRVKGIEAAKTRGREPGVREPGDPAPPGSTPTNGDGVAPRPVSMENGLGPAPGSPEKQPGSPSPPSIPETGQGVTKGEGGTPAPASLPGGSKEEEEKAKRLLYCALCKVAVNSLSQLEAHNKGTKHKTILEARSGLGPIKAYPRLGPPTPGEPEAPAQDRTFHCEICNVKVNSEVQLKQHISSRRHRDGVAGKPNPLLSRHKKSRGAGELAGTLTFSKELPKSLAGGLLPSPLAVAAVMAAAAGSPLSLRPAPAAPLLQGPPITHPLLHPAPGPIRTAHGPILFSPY

[8] = biological target: ELAVL1 (human) (UniProt Q15717)
[9] = biological target: PABPC4 (human) (UniProt Q13310)
[10] = biological target: FAM81A (human) (UniProt Q8TBF8)

- binding [1]: binds
- binding [2]: binds
- binding [3]: binds
- binding [4]: binds
- binding [5]: binds
- binding [6]: binds
- binding [7]: binds
- binding [8]: binds
- binding [9]: binds
- binding [10]: binds
Substance: linear ubiquitin chain assembly complex (LUBAC), purified as HIS-tagged HOIP with the subunit HOIL-1, biotin-labelled (from UniProt Q96EP0 1-1072; Q9BYM8 1-510)
